Results taken from patent US11382875B2, “Methods and compositions for modulating β-amyloid/α7-nAChR interactions” (Lundquist Institute for Biomedical Innovation at …, priority 2017, dated 2022).
At least one structure is not confirmed: it was looked up by name or label, or the drawing left a doubt.

Protein sequences, listed by entry. Tags and fused reporters are not part of them. Residues count along the entry.
UniProt P36544, 23-502: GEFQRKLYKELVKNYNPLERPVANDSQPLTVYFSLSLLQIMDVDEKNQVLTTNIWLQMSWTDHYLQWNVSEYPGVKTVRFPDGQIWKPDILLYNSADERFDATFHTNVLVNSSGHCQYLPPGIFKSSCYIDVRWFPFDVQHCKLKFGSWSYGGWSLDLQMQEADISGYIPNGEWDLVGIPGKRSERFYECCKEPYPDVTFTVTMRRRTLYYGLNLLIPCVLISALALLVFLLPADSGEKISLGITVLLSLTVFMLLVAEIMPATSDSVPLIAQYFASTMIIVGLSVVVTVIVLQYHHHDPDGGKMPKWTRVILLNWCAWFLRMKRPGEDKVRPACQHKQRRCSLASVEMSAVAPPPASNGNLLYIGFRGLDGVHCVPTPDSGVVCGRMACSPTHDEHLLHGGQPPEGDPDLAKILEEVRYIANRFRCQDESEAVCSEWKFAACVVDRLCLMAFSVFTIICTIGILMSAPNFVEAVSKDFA

Target: T1, α7 nAChR (Homo sapiens, UniProt P36544)
T1 construct: host or cells: CHO cells (ATCC)
Experiment: In vitro patch-clamp assay for PAM activity at the α7 nAChR (IonWorks Barracuda, transfected CHO cells)
Type: cell-based
Details: result in words (FIG. 1, FIG. 4)
Protocol: The in vitro patch-clamp assay for PAM activity at the α7 nAChR was performed with PNU-120596 as a positive control. All patch-clamp testing was performed by an independent contract research company, ChanTest (Charles River) in the USA. For patch-clamp measurements, recordings of currents through α7 nAChR were made in a blinded fashion. Measurements of concentration-response and rate-dependence of test articles on α7 nAChR activation kinetics were performed with data collected. The significance of test article effects were evaluated versus parallel vehicle and positive control (PNU-120596) recordings. […]
Test article effects were evaluated in 8-point concentration-response format (4 replicate wells/concentration). […]
The effects were evaluated using IonWorks™ Barracuda system (MDC) using the following electrophysiological procedures: Intracellular solution (mM) consisted off 90 CsF, 50 CsCl, 2 MgCl2, 5 EGTA 10 HEPES, adjusted to pH 7.2 with CsOH. […] Whole-cell recording configuration was established via patch perforation with membrane currents recorded by on-board patch clamp amplifiers. […]
PAM effect of test articles on the channel was calculated as: % activation=(ITA/IAC)×100%, where ITA was the current elicited with 1000 uM Acetylcholine in the presents of […] and IAC was the averaged current elicited with the 1000 uM Acetylcholine with 0.3% DMSO

SMILES: CC(C)C[C@H]1C(=O)N2CCC[C@H]2[C@]2(O)O[C@](NC(=O)[C@@H]3C=C4c5cccc6[nH]c(Br)c(c56)C[C@H]4N(C)C3)(C(C)C)C(=O)N12 [Bromocriptine]
- PAM effects at the α7-nAChR: displaying PAM effects
